A short description of the data set: Midazolam and 1-hydroxymidazolam plasma PK, DDI study stage 1. To be noted: human, po, 4 mg.

Turning to `Cc1ncc2n1-c1ccc(Cl)cc1C(c1ccccc1F)=NC2` [Midazolam, midazolam], the half-life (in general, how long it takes for the measured level to halve) is 2.7 h.

Source of the values: PMC9199882 (Clinical and Translational Science, 2022).
